# Library screen at single concentrations

Sequences of proteins named here, by UniProt entry; tags and fusion partners are left off. Residues count along the entry.
UniProt Q4DA54, 1-478: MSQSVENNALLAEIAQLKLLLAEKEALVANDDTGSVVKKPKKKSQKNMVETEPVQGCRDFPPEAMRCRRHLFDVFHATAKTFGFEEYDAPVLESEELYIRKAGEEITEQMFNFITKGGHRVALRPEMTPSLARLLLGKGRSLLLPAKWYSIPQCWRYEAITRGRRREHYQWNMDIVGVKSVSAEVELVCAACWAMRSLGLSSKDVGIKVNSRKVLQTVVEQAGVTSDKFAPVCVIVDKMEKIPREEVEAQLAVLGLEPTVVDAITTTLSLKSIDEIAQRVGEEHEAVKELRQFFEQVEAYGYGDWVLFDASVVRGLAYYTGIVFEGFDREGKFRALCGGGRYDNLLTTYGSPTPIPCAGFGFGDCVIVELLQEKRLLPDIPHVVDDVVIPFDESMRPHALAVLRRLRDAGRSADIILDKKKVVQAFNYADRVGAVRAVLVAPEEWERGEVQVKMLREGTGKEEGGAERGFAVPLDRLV
UniProt P9WPC5, whole entry: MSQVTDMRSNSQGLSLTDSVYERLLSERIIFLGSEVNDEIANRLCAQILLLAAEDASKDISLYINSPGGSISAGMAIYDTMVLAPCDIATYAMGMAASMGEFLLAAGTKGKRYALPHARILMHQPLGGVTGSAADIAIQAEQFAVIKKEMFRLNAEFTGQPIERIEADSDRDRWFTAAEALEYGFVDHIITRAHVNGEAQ
UniProt P9WPC3, whole entry partner: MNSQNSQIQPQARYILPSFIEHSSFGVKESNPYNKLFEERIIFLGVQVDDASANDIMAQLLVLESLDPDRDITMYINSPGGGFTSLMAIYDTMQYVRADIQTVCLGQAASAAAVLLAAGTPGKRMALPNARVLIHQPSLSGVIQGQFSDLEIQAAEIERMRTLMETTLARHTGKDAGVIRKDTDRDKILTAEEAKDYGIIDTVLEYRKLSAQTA
UniProt Q8IDJ8, 1-583: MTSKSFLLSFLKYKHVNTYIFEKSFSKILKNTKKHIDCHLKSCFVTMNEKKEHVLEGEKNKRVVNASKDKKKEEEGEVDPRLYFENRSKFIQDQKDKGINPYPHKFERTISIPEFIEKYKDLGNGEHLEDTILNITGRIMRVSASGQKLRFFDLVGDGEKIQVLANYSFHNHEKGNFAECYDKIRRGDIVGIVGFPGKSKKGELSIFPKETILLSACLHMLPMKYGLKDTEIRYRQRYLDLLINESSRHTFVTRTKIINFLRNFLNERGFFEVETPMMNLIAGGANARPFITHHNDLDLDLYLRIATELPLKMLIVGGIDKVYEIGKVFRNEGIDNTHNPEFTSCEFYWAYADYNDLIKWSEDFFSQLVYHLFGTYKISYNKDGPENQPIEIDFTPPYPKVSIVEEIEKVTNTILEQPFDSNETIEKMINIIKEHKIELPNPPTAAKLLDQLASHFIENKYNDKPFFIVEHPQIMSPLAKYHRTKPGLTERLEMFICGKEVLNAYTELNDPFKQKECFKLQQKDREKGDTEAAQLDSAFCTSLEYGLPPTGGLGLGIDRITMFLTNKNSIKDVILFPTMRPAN

The values are deposited in ChEMBL (CHEMBL3988442, “University of Dundee, Small-Polar-MMV Screening Library” (2021)).

A: 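Cell assay of Leishmania donovani living inside macrophages; the read-out is not stated. Tested at 30 µM. Higher reads as stronger inhibition (inferred: compounds with an IC50 in retests scored well above the rest). Of about 69,000 compounds tested this way, about 1,000 (1.5%) reached 50% or more in at least one test.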
B: 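Histidine-tRNA ligase, Trypanosoma cruzi CL Brener (UniProt Q4DA54). Enzyme assay of histidyl-tRNA synthetase; the read-out is not stated. Tested at 30 µM. The record gives no direction; compounds that gave an IC50 in retests scored well above the rest, so higher reads as stronger inhibition. About 69,000 compounds were tested under these conditions; 0.045% (about 31) showed 50% or more at least once.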
C: 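ClpP1P2, Mycobacterium tuberculosis (UniProt P9WPC5 and UniProt P9WPC3). Protease assay of ClpP1P2, read by the AMC dye that it sets free. Compounds at 50 µM. Higher reads as stronger inhibition, judged from the few compounds that gave an IC50. Most other retested compounds had strongly negative values. About 69,000 compounds were tested under these conditions; 0.015% (about 10) showed 50% or more at least once.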
D: 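Assay of Toxoplasma gondii numbers, read through their beta-galactosidase reporter with a colour substrate. Concentration: 10 µM. The record gives no direction; the compounds picked for IC50 retests had high values, so higher reads as fewer parasites. Of about 67,000 compounds tested this way, about 260 (0.38%) reached 50% or more in at least one test.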
E: 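Lysine-tRNA ligase, Plasmodium falciparum 3D7 (UniProt Q8IDJ8). Enzyme assay of the cytosolic lysyl-tRNA synthetase in 384-well plates, read by luminescence. Concentration: 30 µM. Direction is inferred from only a few compounds that gave an IC50; most scored high, so higher reads as stronger inhibition. About 69,000 compounds were tested under these conditions; 0.071% (about 49) showed 50% or more at least once.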

Results are given as percent effect.
The record does not define 0% and 100%; most values in the screen are far below 50% and negative numbers occur (in some assays of this library far below -100).
Compounds were drawn at random from those tested, without regard to their results.
Two or more numbers in one place are separate tests of the same structure; such repeats can differ widely.
A dash means the value is not listed here; it may have been measured.

| # | structure | A | B | C | D | E |
|---|---|---|---|---|---|---|
| 1 | `Cc1ccc2nc(CN3CCCC3c3cccnc3)cc(O)c2c1` (stereo unspecified) | 16.39 | 10.59 | -13.23 | 18.84 | 6.91 |
| 2 | `CNc1cc2c(nn1)CCN(C(=O)c1ccoc1)C2` | -6.45 | 1.132 | 0.06314 | -9.155 | 2.955 |
| 3 | `CCCNC(=O)N1CCc2ccc(S(=O)(=O)N3CCOCC3)cc2C1` | 11.75 | 0.5128 | -1.411 | -5.019 | 4.51 |
| 4 | `CC(Cn1cccn1)NCc1cccc(C#N)c1` (stereo unspecified) | 20.15 | 6.383 | -2.23 | 8.614 | 7.229 |
| 5 | `Cc1noc(C)c1CN1CCC2(CCN(Cc3cccc(F)c3)CC2)C1` | - | 6.63 | 3.241 | - | 5.987 |
| 6 | `CCN(CCN(C)C)c1nc(CCN)nc2sc(C)c(C)c12` | 54.95 | 20 | -11.46 | 16.27 | 8.042 |
| 7 | `c1ccc(COCC2CNCc3nccn3C2)nc1` (stereo unspecified) | 14.77 | 1.266 | 0.9843 | -0.1618 | 0.576 |
| 8 | `Cl.[H][C@@]12CN(C3CCCC3)CC[C@]1([H])N(C(=O)C1CCC1)C[C@H]2c1ccsc1` | -62.75 | - | - | 2.842 | - |
| 9 | `Cc1cc(NC(=O)C(C)N2CCN(c3nccs3)CC2)on1` (stereo unspecified) | -10.8 | 0 | -9.304 | 1.122 | 1.808 |
| 10 | `c1coc(CN2CCCn3c(nnc3Cn3cccn3)C2)c1` | - | 2.4 | 3.029 | - | 8.678 |
| 11 | `CS(=O)(=O)NC1CCCN(C(=O)NCc2ccccc2Cl)C1` (stereo unspecified) | -7.241 | 7.289 | -43.38 | -26.2 | 0.1761 |
| 12 | `CN1CC(c2ccccc2)CC12CCN(C(=O)c1c(Cl)cnn1C)CC2` (stereo unspecified) | 39.66 | 0 | 4.425 | -8.64 | 5.973 |
| 13 | `CN(C)CCO[C@H]1CN(C(=O)c2ccc(C#N)cc2)[C@@H]2COC[C@H]12` | - | 15.7 | 7.209 | - | 4.56 |
| 14 | `Cc1noc(C(C)C)c1C(=O)NCc1cccnc1` | 5.918 | 5.747 | -1.554 | -0.9579 | 0.7343 |
| 15 | `Cc1noc(C)c1C(=O)N1CC[C@H]2C[C@@H](c3ccncn3)O[C@@H]2C1` | - | 2.732 | 5.195 | - | 2.09 |
| 16 | `CC(C)COC1CCN(S(=O)(=O)Cc2cccc(F)c2)CC1` | 15.41 | 10.1 | -5.834 | 8.24 | 1.536 |
| 17 | `CCc1nnc2n1CCN(CCS(=O)(=O)c1ccccc1)C2` | -19.33 | 5.344 | 4.941 | -2.329 | 7.454 |
| 18 | `CCNC(=O)N1C[C@@H]2OCC(=O)N(C)[C@@H]2C1` | - | -1.493 | -9.941 | - | -2.378 |
| 19 | `Cc1nccn1[C@@H]1CC[C@@H](N(C)S(=O)(=O)c2cccc(F)c2)[C@H]1O` | 49.33 | 1.695 | -19.78 | 4.501 | 2.13 |
| 20 | `O=C(Cc1ccsc1)N1CCC(Cn2cc(CCO)nn2)CC1` | -11.78 and 1.915 | 1.205 | -10.54 | 6.992 | 5.726 |
| 21 | `Cc1ccc(CNC2CCc3[nH]c(=O)ccc3C2)cc1C.O=C(O)C(F)(F)F` (stereo unspecified) | -8.498 | - | - | 9.283 | - |
| 22 | `CCOc1ccc(CC(CNC(=O)c2ccoc2C)C(N)=O)cc1` (stereo unspecified) | 2.63 | 0 | -4.958 | 1.274 | 19.64 |
| 23 | `NC(=O)c1cc2c(nc1-c1ccc3c(c1)CCO3)CCC2` | 5.315 | 1.932 | -20.48 | -16.98 | 5.716 |
| 24 | `CC(C)c1cc(C2CCN(C(=O)Cn3cnnn3)CC2)[nH]n1` | 21.6 | 0 | -18.03 | -35.13 | -3.253 |
| 25 | `CS(=O)(=O)c1ccc(-c2cnc(C3CCCN3)cn2)cc1.Cl` (stereo unspecified) | 36.99 | - | - | -0.4003 | - |
| 26 | `Cc1ccsc1CNC1CCCc2c1cnn2C.Cl` (stereo unspecified) | -9.113 | - | - | 3.474 | - |
| 27 | `CNS(=O)(=O)c1ccc(C(=O)N2CCCC2Cc2ccccc2)o1` (stereo unspecified) | 13.07 | 0.7576 | 14.8 | -10.73 | -4.045 |
| 28 | `[H][C@@]12C[C@H](C)O[C@]1([H])CCN(C(=O)COC)C2` | -6.494 | - | - | -3.854 | - |
| 29 | `CN(C)C1(CNC(=O)Cc2ccc(F)cc2)CCOCC1` | 1.891 | 10.34 | 0.2572 | 0.6952 | 7.656 |
| 30 | `Oc1ccc(N2CCN(Cc3ccc(F)cc3Br)CC2)cc1` | -23.07 | 10.98 | -3.129 | -13.48 | 4.762 |
| 31 | `N#Cc1ccc(CN2C(=O)c3ccccc3CS2(=O)=O)cc1` | -16.87 | 1.754 | 2.491 | 13.76 | 1.827 |
| 32 | `COCCNS(=O)(=O)c1ccc(Cl)c(C(=O)N(C)Cc2sccc2C)c1` | 9.949 | 1.63 | 7.105 | -8.58 | -2.319 |
| 33 | `CC(C)(C)c1c[nH]c([C@@H]2COCCN2C2CCC2)n1` | 6.988 | 3.261 | -5.833 | 16.64 | 5.322 |
| 34 | `Fc1ccccc1CN1CCCC(NC2CCOCC2)C1` (stereo unspecified) | 15.61 | 2.051 | -3.302 | -4.76 | -1.031 |
| 35 | `O=C(O)C(F)(F)F.[H][C@@]12OCCN(Cc3ccco3)[C@@]1([H])CC[C@@H]2OCC1CC1` | 24.17 | - | - | 5.96 | - |
| 36 | `Cc1cc(NC(=O)CN(CC(C)O)c2ccccc2)on1` (stereo unspecified) | 0.6978 | 4.938 | -1.908 | -18.73 | 7.095 |
| 37 | `CN(Cc1cnc(N)nc1)CC1CCCN(CCc2ccc(Cl)cc2)C1` (stereo unspecified) | 44.04 and 38.29 | 2.41 | -7.678 | 10.33 | 1.1 |
| 38 | `CO[C@H]1COCCN(C(=O)c2ccno2)C1` | -10.47 | 11.96 | 0.2426 | 3.173 | 4.01 |
| 39 | `O=C(c1ccc2c(c1)COC2)N1CCCN(Cc2cscn2)CC1` | -9.881 | 4.274 | -21.56 | -8.781 | -2.372 |
| 40 | `Cc1noc([C@H]2C[C@H]3OCC[C@H]3N(Cc3ccc4c(c3)OCO4)C2)n1` | - | 1.657 | 0.5211 | - | -1.153 |
| 41 | `CC(=O)N1CCC2(CC1)CC(N1CCOCC1)c1ccc(C)cc12` (stereo unspecified) | - | 7.097 | 9.025 | - | 1.377 |
| 42 | `COc1cccc(F)c1C(C)NC(=O)NCc1ccnc(C)n1` (stereo unspecified) | 20.23 | 7.407 | 5.85 | -16.08 | 3.995 |
| 43 | `CCC(C)C(=O)Nc1ccc(CCN2CCOCC2)cc1` (stereo unspecified) | 34.64 | 10.45 | 10.61 | -10.51 | 3.583 |
| 44 | `COc1ccc(OCC(=O)NS(=O)(=O)c2ccc(Br)s2)cc1` | -22.07 | -1.425 | -13.14 | 5.776 | -2.653 |
| 45 | `Fc1cccc(-c2n[nH]cc2-c2nc(CN3CCOCC3)no2)c1` | -6.511 | 1.19 | 9.26 | 4.841 | -0.1911 |
| 46 | `N#Cc1cn(C2CC2)c(=O)n(CC(O)c2ccc(OC(F)F)cc2)c1=O` (stereo unspecified) | 16.86 | -3.422 | 8.106 | -9.598 | 4.354 |
| 47 | `O=C(NCCn1ccnc1)N1CCN(c2nccs2)CC1` | -15.6 | -0.3802 | 11.23 | 3.893 | -11.77 |
| 48 | `O=C1CC(c2cccs2)Cc2nc(O)c(C(=O)N3CCCC3)cc21` (stereo unspecified) | 30.36 | 2.273 | -3.555 | 15.11 | 3.396 |
| 49 | `O=S(=O)(C1CC1)N1CCC2(CCCN(Cc3ccccn3)C2)C1` (stereo unspecified) | - | 10 | -4.218 | - | 4.188 |

Some entries from above, unchanged:

* O=S(=O)(C1CC1)N1CCC2(CCCN(Cc3ccccn3)C2)C1 (stereo unspecified) : B: 10%; C: -4.218%; E: 4.188%
* Cc1cc(NC(=O)CN(CC(C)O)c2ccccc2)on1 (stereo unspecified) : A: 0.6978%; B: 4.938%; C: -1.908%; D: -18.73%; E: 7.095%
* O=C1CC(c2cccs2)Cc2nc(O)c(C(=O)N3CCCC3)cc21 (stereo unspecified) : A: 30.36%; B: 2.273%; C: -3.555%; D: 15.11%; E: 3.396%